Assay results published in paper PMC5045393.
No constants are given. Whether binding was seen depends on the method and setting. Binding seen in cells or lysates may run through a third protein. Some results given as binding are weak or reduced against the parent protein; the word gives no strength. Sequences can lack the tags named with a protein.

Chains of the proteins cited; added tags and fusions are not shown. Lines headed by an entry give the natural chain unless they say otherwise; changes in a name come on top. A line that says so, or that is headed by a name, gives the form on record, which may keep a tag or linker.
UniProt Q96CJ1: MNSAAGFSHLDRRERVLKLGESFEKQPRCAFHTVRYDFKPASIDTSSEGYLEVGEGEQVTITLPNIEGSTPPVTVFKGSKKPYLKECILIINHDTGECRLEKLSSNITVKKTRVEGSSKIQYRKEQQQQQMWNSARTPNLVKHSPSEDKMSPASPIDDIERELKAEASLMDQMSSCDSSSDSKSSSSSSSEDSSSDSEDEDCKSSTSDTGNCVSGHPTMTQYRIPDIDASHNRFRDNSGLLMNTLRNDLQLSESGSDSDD
myc-EAF2^K39-81-85-111R (quadruple substitution EAF2 mutant) (Q96CJ1, form named): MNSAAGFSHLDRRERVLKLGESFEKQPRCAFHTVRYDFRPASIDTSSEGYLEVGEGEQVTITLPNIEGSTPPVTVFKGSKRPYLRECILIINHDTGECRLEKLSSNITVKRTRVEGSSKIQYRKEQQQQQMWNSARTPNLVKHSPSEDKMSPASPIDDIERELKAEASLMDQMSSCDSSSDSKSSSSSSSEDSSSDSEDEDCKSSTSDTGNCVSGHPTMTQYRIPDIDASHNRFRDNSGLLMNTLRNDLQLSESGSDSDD

T1: HA-SIAH2 (UniProt O43255)
T1 sequence: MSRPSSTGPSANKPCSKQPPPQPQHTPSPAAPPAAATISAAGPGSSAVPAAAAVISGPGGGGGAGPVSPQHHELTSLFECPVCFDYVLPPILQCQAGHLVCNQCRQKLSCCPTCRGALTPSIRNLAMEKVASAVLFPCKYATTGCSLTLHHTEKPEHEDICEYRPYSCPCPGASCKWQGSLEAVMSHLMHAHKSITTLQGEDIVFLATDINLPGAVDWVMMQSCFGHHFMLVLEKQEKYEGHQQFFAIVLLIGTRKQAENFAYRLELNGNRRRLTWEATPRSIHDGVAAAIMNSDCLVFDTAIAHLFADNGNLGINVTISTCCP

T2: GFP-ELL1 (UniProt P55199)
T2 sequence: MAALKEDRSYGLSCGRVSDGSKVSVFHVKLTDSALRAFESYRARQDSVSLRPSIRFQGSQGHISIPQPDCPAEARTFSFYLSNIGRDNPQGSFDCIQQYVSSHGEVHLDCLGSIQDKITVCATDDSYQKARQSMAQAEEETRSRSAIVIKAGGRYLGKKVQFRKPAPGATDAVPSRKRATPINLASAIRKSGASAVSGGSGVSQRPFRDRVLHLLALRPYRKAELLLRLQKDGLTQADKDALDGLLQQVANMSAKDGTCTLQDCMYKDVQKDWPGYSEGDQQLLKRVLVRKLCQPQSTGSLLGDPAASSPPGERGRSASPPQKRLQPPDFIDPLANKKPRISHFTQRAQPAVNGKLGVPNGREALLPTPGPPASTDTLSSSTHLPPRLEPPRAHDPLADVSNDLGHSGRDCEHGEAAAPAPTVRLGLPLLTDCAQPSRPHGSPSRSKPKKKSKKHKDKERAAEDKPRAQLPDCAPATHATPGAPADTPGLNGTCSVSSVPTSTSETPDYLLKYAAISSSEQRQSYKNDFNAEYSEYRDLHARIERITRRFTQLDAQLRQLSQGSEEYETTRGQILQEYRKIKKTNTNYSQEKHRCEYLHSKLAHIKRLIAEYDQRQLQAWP

B1: HA-SIAH2 (enzyme, UniProt O43255 1-324)
chain: T1 sequence

Assays:
HA-SIAH2 = biological target: T1, HA-SIAH2; experiment: co-IP; HEK 293 cells co-transfected for 30 h, then MG132 (10 μM) for 18 h; anti-HA precipitation of HA-SIAH2, Flag-EAF2 detected with anti-flag; the legend says denatured cell lysates
GFP-ELL1 = biological target: T2, GFP-ELL1; experiment: co-IP; HEK 293 cells co-transfected for 36 h; anti-GFP precipitation of GFP-ELL1, immunoblot with anti-myc; NP-40 lysis buffer (20 mM Tris-HCl pH 7.5, 150 mM NaCl, 0.5% NP-40), wash with 250 mM NaCl, 4°C
GFP-EAF2 = GFP-EAF2 (UniProt Q96CJ1); experiment: co-IP; HEK 293 cells co-transfected with GFP-EAF2, HA-ubiquitin and HA-SIAH2 for 30 h, then MG132 (10 μM) for 18 h; anti-GFP precipitation of GFP-EAF2, HA-SIAH2 detected with anti-SIAH2; the legend says denatured cell lysates

Molecule	binding (GFP-ELL1)	other results
Flag-EAF2 (from UniProt Q96CJ1 1-260)		binding (HA-SIAH2): binds
myc-EAF2 (wild-type ELL-associated factor 2) (from UniProt Q96CJ1 1-260)	binds	
myc-EAF2^K39-81-85-111R (quadruple substitution EAF2 mutant) (from UniProt Q96CJ1 1-260)	binds	
B1		binding (GFP-EAF2): binds
